Measurements published in publication PMC3684612.
Results are given in words; binding and its absence hold for the method and conditions named. In cells and extracts the contact can be indirect. Some results given as binding are weak or reduced against the parent protein; the word gives no strength.

Amino acid sequences for entries named in this document (tags omitted).
UniProt Q9BRF8: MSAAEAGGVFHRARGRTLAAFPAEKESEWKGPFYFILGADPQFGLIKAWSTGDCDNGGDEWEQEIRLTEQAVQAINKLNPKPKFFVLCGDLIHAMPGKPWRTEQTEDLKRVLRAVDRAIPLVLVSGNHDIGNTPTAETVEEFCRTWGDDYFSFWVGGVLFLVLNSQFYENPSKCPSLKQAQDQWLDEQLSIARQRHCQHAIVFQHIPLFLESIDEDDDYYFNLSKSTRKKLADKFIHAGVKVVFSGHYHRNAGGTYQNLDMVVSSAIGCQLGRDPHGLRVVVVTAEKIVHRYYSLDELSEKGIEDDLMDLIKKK
UniProt P31749: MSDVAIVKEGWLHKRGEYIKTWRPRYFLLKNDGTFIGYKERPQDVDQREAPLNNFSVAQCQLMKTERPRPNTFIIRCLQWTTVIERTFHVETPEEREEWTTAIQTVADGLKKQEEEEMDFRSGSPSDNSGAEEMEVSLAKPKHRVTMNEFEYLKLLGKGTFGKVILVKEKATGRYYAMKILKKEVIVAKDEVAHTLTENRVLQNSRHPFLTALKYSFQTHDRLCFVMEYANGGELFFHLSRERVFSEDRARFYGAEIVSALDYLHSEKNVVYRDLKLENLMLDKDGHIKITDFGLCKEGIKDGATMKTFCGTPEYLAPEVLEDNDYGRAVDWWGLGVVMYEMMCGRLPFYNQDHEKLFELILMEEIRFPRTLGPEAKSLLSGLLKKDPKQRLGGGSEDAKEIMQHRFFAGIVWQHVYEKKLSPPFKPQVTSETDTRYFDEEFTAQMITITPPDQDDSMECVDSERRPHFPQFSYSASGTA

Experiments:
[1] = molecular target: complete s transactivated protein 1 (CSTP1), Myc-tagged, from pcDNA3.1 myc/his C-CSTP1 (human) (UniProt Q9BRF8); test: co-IP; 293T cells cotransfected with Myc-tagged CSTP1 and Flag-tagged Akt plasmids; whole protein lysate immunoprecipitated with anti-CSTP1 antibodies, immunoblot with anti-Flag antibodies (Fig. 7D, low panel)
[2] = molecular target: Flag-tagged Akt (Akt1 in pCMV Tag-2B) (UniProt P31749); test: co-IP; 293T cells cotransfected with Myc-tagged CSTP1 and Flag-tagged Akt plasmids; total protein immunoprecipitated with anti-Flag antibody, western blot with anti-CSTP1 antibodies (Fig. 7D, up panel)

| Substance | binding [1] | binding [2] |
| --- | --- | --- |
| Flag-tagged Akt (Akt1 in pCMV Tag-2B) (from UniProt P31749 1-480) (enzyme) | binds |  |
| complete s transactivated protein 1 (CSTP1), Myc-tagged, from pcDNA3.1 myc/his C-CSTP1 (from UniProt Q9BRF8 1-314) (enzyme) |  | binds |
